US12528741B2, “Compositions for controlling microbially induced concrete corrosion” (The Regents of the University of Colorado, priority 2020, dated 2026)
Some of these results come from one statement about several compounds together. At least one compound was matched to its structure with a doubt left.

Tested on: Acidithiobacillus spp.
Test: 16S rRNA gene analysis of metal-exposed enrichment cultures
Assay type: cell-based
Details: Cu >40 mg/L (Cu/Ag: above 40 mg Cu/L and 20 mg Ag/L)
Source text: Cu and Cu/Ag mixtures were chosen to investigate the microbial communities under conditions where a pH threshold was observed. 16S rRNA gene analysis of 17 samples generated over 4 million sequences, classified in 611 operational taxonomic units (OTUs). After rarefaction analysis, the median Good's coverage was >99.9%, indicating enough sequencing data to confidently describe the diversity within these samples. Abundant OTUs consistently included 5 bacteria genera (FIGS. 6A-6B). Samples with metal concentration below the acidophilic inhibition threshold (40 mg Cu/L) indicated bacterial communities were dominated by Acidithiobacillus spp. […] When copper and silver were both present, Acidithiobacillus represented the dominant genus below the concentrations of 40 mg Cu/L and 20 mg Ag/L. The same genus represented less than 1% in batches above these concentrations. Following the same pattern as in the presence of Cu alone, the enrichments were also dominated by Burkholderia and Ralstonia spp. with significant presence of Sphingomonas spp., Leifsonia spp., Methylobacterium spp., and Microbacteriaceae spp. (when Cu ≥40 mg/L).

[Cu+2] [Cu, copper]
Acidithiobacillus relative abundance above threshold: less than 1%
